The list does not hold the whole screen: it gathers tests that were run many times, whatever their T/C, doses with no T/C, and many T/C values between a quarter and a half above the control. Further doses and runs are listed elsewhere. T/C is the treated group as % of the vehicle group. Some entries give survivors of the animals treated and no T/C: the source files T/C as zero there, which appears to mark a toxic dose or a test without result, not a measured value. Some survivor counts are full or nearly so, which does not show that the dose was tolerated: survival well below the control is almost never listed, so the zero probably covers shortened survival too. Counts of survivors are from the toxicity check (mostly the fifth day) where no day follows; animals may have died later. Schedules are NCI's codes, taken here to give the interval after Q, in days (D) or hours (H), and the number of doses after X. Where survival is the endpoint, the PubChem record calls one and a half times the control and up active, and a quarter to a half above the control has no call in these data; cut-offs in other NCI protocols can differ. Some entries hold several experiments; the values are given in rising order. Some T/C values carry the count of animals alive at the toxicity check (mostly the fifth day); without a count, all were alive then.
Tested on: P388 leukemia ip, CD2F1 mice, survival T/C
Assay: NCI In Vivo Anticancer Drug Screen. Data for tumor model P388 Leukemia (intraperitoneal) in CD2F1 (CDF1) mice
Conditions: T/C endpoint: median survival time, higher T/C = longer survival
[1] = dose: 60.0 mg/kg/injection, schedule: Q01DX005 (ip), vehicle: saline with Tween-80
[2] = dose: 120.0 mg/kg/injection, schedule: Q01DX005 (ip), vehicle: saline with Tween-80
[3] = dose: 240.0 mg/kg/injection, schedule: Q01DX005 (ip), vehicle: saline with Tween-80
[4] = dose: 200.0 mg/kg/injection, schedule: Q01DX005 (ip), vehicle: Klucel (hydroxypropylcellulose) (HPC)
[5] = dose: 200.0 mg/kg/injection, schedule: Q01DX005 (ip), vehicle: saline with Tween-80
[6] = dose: 120.0 mg/kg/injection, schedule: Q01DX005 (ip), vehicle: saline
[7] = dose: 240.0 mg/kg/injection, schedule: Q01DX005 (ip), vehicle: saline

## CC1CCC[N+](C)([B-](F)(F)F)C1 (stereo not drawn)
dose: 200.0 mg/kg/injection, schedule: Q01DX005 (ip), vehicle: saline
  survivor count: 0 of 6

## CC(=O)O.Cl.NC1C([O-])OC(CO)C(O)C1O.O=C1OC(C(O)CO)C([O-])=C1[OH2+].[Cu+2] (stereo not drawn)
dose: 30.0 mg/kg/injection, schedule: Q01DX005 (ip), vehicle: saline with Tween-80
  survivor count: 0 of 6
[1]
  survivor count: 0 of 6
[2]
  survivor count: 0 of 6
[3]
  survivor count: 0 of 6

## O=C(Nc1ccccc1C(=O)O)c1cc([N+](=O)[O-])cc([N+](=O)[O-])c1
dose: 200.0 mg/kg/injection, schedule: Q01DX009 (ip), vehicle: saline with Tween-80
  T/C: 126 % of control [4 of 6 alive]

## Cc1cc[n+](C)c(Cc2ccccc2)c1C
dose: 50.0 mg/kg/injection, schedule: Q01DX005 (ip), vehicle: Klucel (hydroxypropylcellulose) (HPC)
  survivor count: 3 of 5
dose: 100.0 mg/kg/injection, schedule: Q01DX005 (ip), vehicle: Klucel (hydroxypropylcellulose) (HPC)
  survivor count: 0 of 5
[4]
  survivor count: 0 of 5

## O=C1C=CC(=O)C2=C1CCOC2c1ccccc1 (stereo not drawn)
dose: 100.0 mg/kg/injection, schedule: Q01DX005 (ip), vehicle: saline with Tween-80
  survivor count: 1 of 6
[5]
  survivor count: 0 of 6

## C=C1C[C@@H](C2OC3OC(C)(C)OC3C2OCc2ccccc2)OC1=O (stereo partly drawn)
[5]
  T/C: 125 % of control

## O=C1CCC(=O)N1CO
dose: 150.0 mg/kg/injection, schedule: Q01DX009 (ip), vehicle: saline with Tween-80
  T/C: 142 % of control
dose: 300.0 mg/kg/injection, schedule: Q01DX009 (ip), vehicle: saline with Tween-80
  T/C: 145 % of control

## COc1ccccc1/C=C(\C(=O)O)c1ccccc1
[4]
  survivor count: 6 of 6

## Nc1ccccc1SSc1ccccc1C(=O)O
[4]
  survivor count: 0 of 5

## Cc1ccc(S(=O)(=O)C2(NC(=O)C3CC3)CC2)cc1
dose: 240.0 mg/kg/injection, schedule: Q01DX005 (ip), vehicle: Klucel (hydroxypropylcellulose) (HPC)
  survivor count: 6 of 6

## CCCCCCCCCCCCCC[N+](C)(CC(=O)[O-])Cc1ccccc1 (stereo not drawn)
[1]
  survivor count: 3 of 6
[2]
  survivor count: 2 of 6
[3]
  survivor count: 0 of 6

## NN=C(c1ccc(Br)cc1)c1ccc(Br)cc1
dose: 200.0 mg/kg/injection, schedule: Q04DX002 (ip), vehicle: saline with Tween-80
  survivor count: 5 of 6
dose: 400.0 mg/kg/injection, schedule: Q04DX002 (ip), vehicle: saline with Tween-80
  survivor count: 0 of 6

## CC(=O)/C(=C\c1ccccc1Cl)C(=O)CCN(C)C
[6]
  T/C: 130 % of control
[7]
  survivor count: 1 of 6

## COc1cccc2c1C(=O)c1c(O)c3c(c(O)c1C2=O)CC(O)(C(=O)CO)CC3OC1CC(N/C(C)=C/C(C)=O)C(O)C(C)O1 (stereo not drawn)
dose: 2.5 mg/kg/injection, schedule: Q04DX003 (ip), vehicle: saline with Tween-80
  T/C: 132 % of control
dose: 5.0 mg/kg/injection, schedule: Q04DX003 (ip), vehicle: saline with Tween-80
  T/C: 149 % of control
dose: 20.0 mg/kg/injection, schedule: Q04DX003 (ip), vehicle: saline with Tween-80
  T/C: 145 % of control

## O=C1CC=C2C3CC4N(CCC45c4cc(O)c(O)cc4N1C25)C/C3=C\CBr (stereo not drawn)
[1]
  survivor count: 3 of 6
[2]
  survivor count: 4 of 6
[3]
  survivor count: 1 of 6

## COc1ccc(Oc2ccc(C(=O)C(CN(C)C)CN(C)C)cc2)cc1
dose: 7.5 mg/kg/injection, schedule: Q01DX005 (ip), vehicle: saline
  T/C: 133 % of control
dose: 15.0 mg/kg/injection, schedule: Q01DX005 (ip), vehicle: saline
  T/C: 131 and 133 % of control
dose: 30.0 mg/kg/injection, schedule: Q01DX005 (ip), vehicle: saline
  survivor count: 6 of 6
dose: 60.0 mg/kg/injection, schedule: Q01DX005 (ip), vehicle: saline
  survivor count: 0 of 6
[6]
  survivor count: 0 of 6
[7]
  survivor count: 0 of 6

## N#CN.[Pb]
[4]
  T/C: 126 % of control

## CC(=O)O[C@H]1CC[C@]2(C)C34OC3C[C@]3(C)[C@@H](C(C)=O)CC[C@H]3[C@]43C=C[C@@]2(C1)C1C(=O)OC(=O)C13 (stereo partly drawn)
[4]
  survivor count: 3 of 5

Reference: PubChem BioAssay AID330 (DTP/NCI, 2004)
